The supplement of paper PMC6445147
Single values of this data set are uncertain.

B1: human tRNA-Pro; a variant is named by its letters at N, in order (parent)
chain: GGCTCGTTGGTCTAGNGGTATGATTCTCGCTTAGGGTGCGAGAGGTCCCGGGTTCNNATCCCGGACGAGCCC

Columns and labels:
[1] = variants of: B1; assay: tRNA Pol-III promoter activity, log2 (circRNA frequency / plasmid DNA frequency) (log2 ratio); higher = stronger promoter activity; conditions: HEK293T; construct: no Pol-II promoter ((-)CMV library)
[2] = variants of: B1; assay: tRNA 3' processing efficiency (processed reads / all reads, maximum-likelihood estimate) (fraction); higher = more efficient 3' processing; conditions: HEK293T; construct: no Pol-II promoter ((-)CMV library)
[3] = variants of: B1; assay: tRNA 5' processing efficiency (processed reads / all reads, maximum-likelihood estimate) (fraction); higher = more efficient 5' processing; conditions: HEK293T; construct: CMV Pol-II promoter ((+)CMV library, decapped)

Row | Variant | tRNA Pol-III promoter activity (log2) [1] | tRNA 3' processing efficiency [2] | tRNA 5' processing efficiency [3]
1 | CAA T8A G18T | 3.93 | 0.33 | 
2 | GTA A14C T59C | 6.45 | 0.62 | 
3 | TAC A14C | 6.36 | 0.4 | 
4 | GAT G15C | 2.44 | 0.47 | 
5 | GAA G17C T54A | 0.68 | 0.38 | 
6 | GAA T19A A20G T59G | 4.03 | 0.25 | 
7 | AAT T8A | 3.09 | 0.4 | 
8 | CGA G18C C55T T59A | 5.73 | 0.77 | 
9 | GAA T8G A14G G18A | 5.36 | 0.5 | 
10 | CAA A20G T59G | 4.34 | 0.25 | 
11 | GAC T59C | 0.262 | 0.17 | 
12 | GCA A20T A58C | 6.59 | 0.68 | 
13 | GAA A20G T59A | 2.53 | 0.5 | 
14 | GCA A14T G17T T19G | 4.93 | 0.5 | 
15 | GAG G15A G17T | 7.18 | 0.09 | 
16 | GAA G9C G15C G18T | 3.03 | 0.5 | 
17 | GAG A14T G18T | 2.18 | 0.4 | 
18 | CAA T54A | 2.65 | 0.86 | 0.25
19 | GAC A14T G18A | 4.21 | 0.33 | 
20 | GAA G2A T53G | 4.26 | 0.4 | 
21 | GAA G15A A58T | 2.14 | 0.43 | 0.5
22 | GCG T19A | 3.62 | 0.25 | 
23 | GAG T8C G15C | 7.84 | 0.14 | 

Row | Variant | tRNA Pol-III promoter activity (log2) [1] | tRNA 3' processing efficiency [2] | tRNA 5' processing efficiency [3]
24 | CAA A20C A58G | 2.93 | 0.25 | 
25 | GAA G17T | -1.3 | 0.86 | 0.2
26 | GAT G15T C55A | 2.04 | 0.75 | 
27 | CAA A20C A58T T59G | 5.26 | 0.57 | 
28 | GAT T19A A20C | 4.96 | 0.35 | 
29 | AAA G17C | -0.351 | 0.8 | 
30 | GAG A14C T19A | 4.75 | 0.14 | 
31 | GAA A14G T54C | -0.491 | 0.8 | 0.25
32 | GAA T8C A14T A58G | 4.1 | 0.33 | 
33 | GAA T19A | -0.92 | 0.28 | 0.21
34 | GAA T8G T19A | -0.365 | 0.2 | 
35 | GAA G9A G15C | -0.772 | 0.25 | 
36 | GTA G9A A20G | 1.19 | 0.25 | 
37 | GAA G9A G35A A58T | 5.26 | 0.4 | 
38 | AAA T53A A58T | 3.62 | 0.25 | 
39 | GAA A20T A58C T59A | 5.26 | 0.43 | 
40 | CAA G9A G15A | 4.44 | 0.3 | 
41 | AAA A58T T59G | 5.19 | 0.25 | 
42 | GAA T54A A58T | 0.59 | 0.42 | 
43 | GAT G15A A20T T54G | 3.14 | 0.43 | 
44 | GTA T53G | 1.37 | 0.51 | 
45 | GAA A20T G50A | 7.94 | 0.56 | 
46 | GTA T8C G9A A58G | 8.94 | 0.27 | 

Single entries from the list.
tRNA 3' processing efficiency [2], AAA T53A A58T reads 0.25
tRNA 3' processing efficiency [2], GAA T8G T19A reads 0.2
tRNA 3' processing efficiency [2], GAA G9A G35A A58T reads 0.4
tRNA Pol-III promoter activity (log2) [1], GAT G15T C55A reads 2.04

Following part:

Row | Variant | tRNA Pol-III promoter activity (log2) [1] | tRNA 3' processing efficiency [2] | tRNA 5' processing efficiency [3]
47 | GAA T8C | -0.657 | 0.6 | 0.44
48 | GAG C55T | -0.692 | 0.5 | 
49 | GAC A20T | -0.0868 | 0.4 | 
50 | GAT T8A G15A | 3.57 | 0.29 | 
51 | GAT T8C T19A T59A | 5.03 | 0.25 | 
52 | GAG T8C A20T | 2.94 | 0.33 | 
53 | GGA A58T T59A | 4.09 | 0.36 | 
54 | GTA T53G T59A | 3.67 | 0.2 | 
55 | GAT G18A T19G | 4.88 | 0.56 | 
56 | GAT T53A T59C | 1.94 | 0.33 | 
57 | CAA T19A | 0.161 | 0.25 | 
58 | CAA T19G A58G | 3.03 | 0.25 | 
59 | TAA G15T A58G T59G | 4.68 | 0.4 | 
60 | AGA T59G | 4.16 | 0.67 | 
61 | CAT G15T | 3.02 | 0.22 | 
62 | TAA T19A | 0.0813 | 0.49 | 
63 | GCA G15A T19A A58C | 4.03 | 0.4 | 
64 | GAT A14C T19C A58G | 6.51 | 0.17 | 
65 | GGC T8A G15T T19G | 3.71 | 0.5 | 
66 | GAA T8C T59G | 2.04 | 0.38 | 
67 | GAA T53A T54A | -0.547 | 0.25 | 0.25
68 | TAC C55T | -0.145 | 0.5 | 
69 | CGA C55A | 2.86 | 0.25 | 

Row | Variant | tRNA Pol-III promoter activity (log2) [1] | tRNA 3' processing efficiency [2] | tRNA 5' processing efficiency [3]
70 | GGA T8G T53G | 4.62 | 0.17 | 
71 | GAA T19C A20G A58T | 4.29 | 0.79 | 
72 | GAA A58T T59A | 3.25 | 0.36 | 
73 | GCA A14T A58G | 3.4 | 0.11 | 
74 | GAC T8A G15T T54G C55T T59G | 5.03 | 0.5 | 
75 | GAA G9A A58G | -0.0102 | 0.33 | 0.33
76 | GAA A20C | -1.14 | 0.5 | 0.45
77 | GAA A14G A58T | 0.164 | 0.26 | 
78 | GGA C55G A58C | 3.13 | 0.25 | 
79 | GAA T8C A14T T59G | 3.12 | 0.25 | 
80 | AAA T53A T59C | 6.62 | 0.17 | 
81 | GAA G17A T59A | 0.924 | 0.2 | 
82 | GAC A14G G15C | 3.36 | 0.5 | 
83 | ATA | 2.87 | 0.4 | 
84 | GTA G15C T59A | 6.73 | 0.23 | 
85 | GAA G17T T19C T53A | 3.5 | 0.67 | 
86 | TGG G9A | 8.03 | 0.12 | 
87 | AAA T8G T53C | 5.74 | 0.29 | 
88 | GGA A14G A58T | 5.12 | 0.59 | 
89 | CAT G9A | 4.34 | 0.25 | 
90 | GTA G17T T53A | 3.03 | 0.2 | 
91 | AAA A20G T54A | 2.76 | 0.25 | 
92 | GAA A14G T59C | 2.34 | 0.34 | 0.33

Row | Variant | tRNA Pol-III promoter activity (log2) [1] | tRNA 3' processing efficiency [2] | tRNA 5' processing efficiency [3]
93 | GAT T54A | 0.228 | 0.2 | 
94 | AGA C55A | 5.26 | 0.4 | 
95 | GAA A14C A58G | 2.05 | 0.59 | 
96 | GAA G15A T59G | 1.32 | 0.23 | 
97 | GAA G9A A14T G38A | 4.68 | 0.2 | 
98 | GAA A14G G50T | 5.26 | 0.2 | 
99 | GAA G9A G15C G17T | 13.4 | 0.93 | 
100 | TAA C55G | -0.628 | 0.25 | 
101 | GGA G15A A58G | 5.26 | 0.2 | 
102 | AAC A14G | 3.1 | 0.2 | 
103 | GAA T8C G15C A58C | 4.21 | 0.17 | 
104 | CAA G15A T59A | 4.36 | 0.13 | 
105 | CAA T8C A58T | 4.42 | 0.25 | 0.2
106 | GAA T54C | -2.46 | 0.25 | 0.5
107 | GAT T59A | 1.53 | 0.4 | 
108 | TAA T19G T59C | 3.13 | 0.25 | 
109 | GAA A14C A20G | 1.28 | 0.36 | 
110 | GGA A20G C55T | 2.13 | 0.25 | 
111 | GTA G17C G18A | 3.62 | 0.5 | 
112 | TTA T59C | 5.2 | 0.25 | 
